Measured values taken from PubChem BioAssay (NCATS).
“And” between values parts separate entries of the source, which are not always exact repeats. Equal values may be shown once. The list shows a part of the results. Shown are side measurements of this screen, not its main read-out; they come without a call. For some assays here: Most of these compounds were active or inconclusive in the main read-out, so they are no random draw. For some assays here: Potencies come from curve fits of mixed quality, noted in brackets.

Tests used:
[1] = A High-Content qHTS Against Drug Library for the Identification of Small Molecules that Inhibit DYT1 Early Onset Primary Dystonia-Associated Cell Pathology (AID 1645839); details: HEK293 Flp-In EGFP-delE TorsinA, punctate imaging, 48 h; measured here: cell count cytotoxicity
How it was run: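 High-content imaging quantified EGFP-TorsinA mislocalization in HEK293-derived cells inducibly expressing DYT1 mutant torsinA, after 48 h exposure to compound given together with tetracycline induction. Cell count served as a toxicity channel alongside %pathology.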

[2] = qHTS drug screen for cell cycle checkpoint inhibitors in PARPi-resistant BRCA-mutant ovarian cancer cell lines. (AID 1963452); details: PEO1/OlaR viability, CellTiter-Glo luminescence, 96 h; measured here: PEO1 parental viability
How it was run: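 PEO1, PEO4 and PEO1/OlaR ovarian cancer cells, 600 per well, exposed 96 h at 37C to a dilution series. Viability read by CellTiter-Glo luminescence, normalized to DMSO and empty wells; activity summarized as Z-AUC.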

[3] = qHTS for identification of novel therapeutic agents for treatment of microphthalmiaassociated transcription factor (MiT) renal cell carcinoma (RCC) (AID 1963991); details: CellTiter-Glo, 48 h; for z-score: stronger effect = lower value
How it was run: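 Three TFE3-fusion RCC lines (UOK109, UOK124, UOK145), 500 cells/well in complete medium, were treated with MIPE 4.0 compounds for 48 hours at 37 C. Viability was by CellTiter-Glo luminescence, normalized to DMSO (100%) and empty wells (0%); curves fitted over 11 concentrations.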

[4] = qHTS Assay for Modulators of Human Peripheral Myelin Protein 22 (PMP22) Expression/Activity (AID 1967); details: Cell-based PMP22 reporter, dual-color luciferase ratio
How it was run: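 MSC80 mouse Schwann cells stably carrying Pmp22 promoter–green click beetle luciferase plus EF-alpha–red luciferase control were dosed for 24h at 37 °C. Dual-colour luminescence was filter-overlap corrected; %Activity came from green/red ratio versus untreated cells.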

[5] = qHTS assay for small molecule antagonists of peroxisome proliferator-activated receptor delta signaling (AID 588535); details: HEK293T PPARd-UAS-bla, beta-lactamase FRET ratio, 18 h; 460 nm channel;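 further: cells co-treated with a PPAR-delta agonist as stimulator during compound exposure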
How it was run: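 Antagonist-mode qHTS using GeneBLAzer PPAR-delta-UAS-bla HEK293T cells; compound exposure 18 hrs at 37 C over a titration. Ratiometric CCF4 fluorescence at 460/530 nm; concentration-response points fitted to the Hill equation.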

[6] = qHTS assay for small molecule agonists of retinoid X receptor alpha signaling (AID 588544); details: HEK293T RXRa-UAS-bla, beta-lactamase reporter, 18 h; 530 nm emission
[7] = qHTS assay for small molecule antagonists of retinoid X receptor alpha signaling (AID 588546); details: HEK293T RXRa-UAS-bla, beta-lactamase ratio, antagonist mode; measured here: W530 green channel, cytotoxicity proxy;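 further: cells stimulated with 9-cis-retinoic acid as agonist; on the % scale 0 is the no-effect control and ±100 the full control effect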
How it was run: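 Beta-lactamase reporter inhibition, read as CCF4 fluorescence ratio (ex 405, em 460/530 nm) after 2 h at RT. HEK293T UAS-bla cells, 2500/well, were stimulated with 9-cis-RA at 500 or 100 nM final alongside test compound for 18 h at 37 C.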

[8] = S16 Schwann cell PMP22 intronic element beta-lactamase assay (AID 624044); details: S16 rat Schwann cells, PMP22 element beta-lactamase FRET, 24 h
How it was run: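 Beta-lactamase reporter under a PMP22 intronic regulatory element in stable S16 rat Schwann cells; 24 h compound exposure. 460 nm blue signal normalized between DMSO (0%) and potassium clavulanate, with 535 nm FRET tracking viability; curves classed by r2 and response.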

[9] = qHTS Validation Assay to Find Inhibitors of Chronic Active B-Cell Receptor Signaling (AID 485345); details: ABC-DLBCL cells, chronic BCR signaling reporter
How it was run: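 Read-out: ratio of filter-corrected green (IkappaBalpha fusion) to red (native) luciferase signal in doxycycline-induced TMD8 cells after 4 h at 37C. Titration spanned 46 uM–3 nM; Data were normalised to basal cells and 10 uM MG-132 wells.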

[10] = qHTS assay for small molecule antagonists of peroxisome proliferator-activated receptor gamma signaling (AID 588537); details: HEK293 PPARg-UAS-bla, beta-lactamase ratio, antagonist mode; measured here: W460 blue channel
How it was run: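 Cell-based beta-lactamase assay; GW9662 served as the antagonist control. Stimulation used rosiglitazone, final 50 nM, 16 h, 37 C.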

[11] = qHTS assay for small molecule antagonists of vitamin D receptor signaling (AID 588541); details: HEK293T VDR-UAS-bla, beta-lactamase ratio, antagonist mode; measured here: W460 blue channel (cell viability)
[12] = qHTS assay for small molecule antagonists of glucocorticoid receptor signaling (AID 588533); details: HeLa MMTV-bla, GRE beta-lactamase ratio, antagonist mode, 18 h; measured here: W530 channel AC50
[13] = TFE3-RCC UOK109 viability, measured here: UOK109 Z-AUC
[14] = TFE3-RCC viability, measured here: UOK124 Z-AUC
[15] = TFE3-RCC viability, measured here: UOK124 cell viability
[16] = TFE3-RCC viability, measured here: UOK145 Z-AUC
[17] = measured here: green reporter channel AC50, mouse Pmp22 promoter in mouse Schwann cells
[18] = measured here: red reporter channel AC50, EF-alpha promoter control reporter in MSC80 mouse Schwann cells
[19] = measured here: 460 nm blue channel
[20] = measured here: CBG/CBR ratio read-out
[21] = measured here: CBR control luciferase (viability counter)

COC1=C(OC)C(=O)C(CCCCCCCCCCO)=C(C)C1=O
AC50 [1]: 10 µM [falling, partial curve, poor fit] | AC50 [2]: 1.55 µM [falling, partial curve, poor fit] | z-score [3, 13]: 1.24 | z-score [3, 14]: -0.231 | AC50 [3, 15]: 29.6 µM [falling, single point] | z-score [3, 16]: 0.815

CN1CCCC(n2nc(Cc3ccc(Cl)cc3)c3ccccc3c2=O)CC1 (centres undefined)
AC50 [1]: 17.8 µM [falling, single point] | z-score [3, 13]: -0.87 | z-score [3, 14]: -1.5 | AC50 [3, 15]: 2.35 µM [falling, full curve] | z-score [3, 16]: -0.522 | AC50 ([3]; TFE3-RCC viability, measured here: UOK145 cell viability): 14.8 µM [falling, partial curve]

CC(=O)Oc1cc2c(s1)CCN(C(C(=O)C1CC1)c1ccccc1F)C2 (centres undefined)
AC50 [1]: 12.6 µM [falling, single point] | z-score [3, 13]: -0.0349 | z-score [3, 14]: 0.636 | z-score [3, 16]: 0.565

CN(C)[C@@H](CCOc1cccc2ccccc12)c1ccccc1
AC50 [1]: 14.1 µM [falling, partial curve, poor fit] | z-score [3, 13]: 0.205 | z-score [3, 14]: 0.494 | AC50 [3, 15]: 20.9 µM [falling, partial curve] | z-score [3, 16]: 0.24

CCNC(=O)N1CCN(CCCC(c2ccc(F)cc2)c2ccc(F)cc2)CC1
AC50 [4, 17]: 67.5 µM [falling, partial curve] | AC50 [4, 18]: 67.5 µM [falling, partial curve] | AC50 [1]: 12.6 µM [falling, partial curve]

CC(C)(C)CC(C)(C)c1ccc(O)c(-n2nc3ccccc3n2)c1
max response [5]: 15.2% | max response [6]: 51.2% | max response [7]: -2.94% | AC50 [8, 19]: 1.41 µM [falling, full curve] | AC50 [1]: 22.4 µM [rising, partial curve, poor fit]

CCOc1nc2cccc(C(=O)O)c2n1Cc1ccc(-c2ccccc2-c2nn[nH]n2)cc1
AC50 [8, 19]: 0.0158 µM [falling, full curve, poor fit] | AC50 [1]: 35.5 µM [rising, partial curve, poor fit]

NC(=Nc1ccccc1)Nc1ccccc1
max response [6]: 12.5% | AC50 [1]: 7.94 µM [falling, full curve, poor fit]

CNCCC(Oc1ccc(C(F)(F)F)cc1)c1ccccc1 (centres undefined)
AC50 [9, 20]: 20.6 µM [falling, partial curve] | AC50 [9, 21]: 23.1 µM [falling, single point] | AC50 [1]: 17.8 µM [falling, single point]

O=C(Nc1ccc(Cl)cc1)Nc1ccc(Cl)c(Cl)c1
max response [5]: -12.3% | AC50 [1]: 14.1 µM [falling, single point]

CCCCCCCCCCCC[N+](C)(C)Cc1ccccc1
max response [7]: 14.1% | AC50 [1]: 35.5 µM [falling, single point]

O=c1[nH]c2ccccc2n1CCCN1CCN(C(c2ccccc2)c2ccccc2)CC1
AC50 [4, 17]: 84.9 µM [falling, single point] | AC50 [4, 18]: 84.9 µM [falling, single point] | AC50 [1]: 31.6 µM [falling, single point]

COc1ccccc1N1CCN(CC(O)COc2cccc3ccccc23)CC1 (centres undefined)
AC50 [4, 17]: 75.7 µM [falling, partial curve] | AC50 [4, 18]: 75.7 µM [falling, partial curve] | AC50 [9, 20]: 16.4 µM [falling, partial curve] | AC50 [8, 19]: 5.01 µM [falling, full curve, poor fit] | AC50 ([8]; measured here: 530 nm viability channel): 0.00708 µM [falling, full curve, poor fit] | AC50 [1]: 35.5 µM [falling, single point]

Nc1ccc(O)c([N+](=O)[O-])c1
AC50 [10]: 50.1 µM [rising, single point] | max response [6]: -4.8% | AC50 [1]: 31.6 µM [falling, single point]

OCCOCCN1CCN(C(c2ccccc2)c2ccc(Cl)cc2)CC1 (centres undefined)
max response [5]: 52.4% | AC50 [1]: 8.91 µM [falling, partial curve]

C#C[C@]1(OC(C)=O)CC[C@H]2[C@@H]3CCC4=C[C@@H](OC(C)=O)CC[C@@H]4[C@H]3CC[C@@]21C
AC50 [8, 19]: 17.8 µM [rising, partial curve, poor fit] | AC50 [1]: 14.1 µM [falling, single point]

CCCCOCCOCCOCc1cc2c(cc1CCC)OCO2
max response [5]: 136% | AC50 [1]: 63.1 µM [rising, single point]

NCCNc1cccc2ccccc12
max response [5]: 63.1% | AC50 [10]: 39.8 µM [falling, partial curve] | AC50 [11]: 35.5 µM [falling, partial curve] | AC50 [1]: 14.1 µM [falling, single point]

Nc1ccc([N+](=O)[O-])cc1O
max response [6]: -12.6% | AC50 [1]: 7.94 µM [falling, partial curve]

CC(C)(C)c1ccc(O)c(O)c1
AC50 [12]: 28.2 µM [falling, single point] | max response [6]: 15.2% and -11.8% | AC50 [1]: 63.1 µM [falling, partial curve, poor fit]

Oc1ccc(Cl)cc1Cc1cc(Cl)ccc1O
max response [5]: -12.3% and -45.9% | AC50 [1]: 31.6 µM [falling, single point]

c1ccc2occc2c1
max response [6]: 22.7% and -19.1% | max response [7]: -2.99% | AC50 [1]: 7.94 µM [falling, partial curve, poor fit]

CCCCC(CC)COC(=O)c1ccccc1C(=O)O (centres undefined)
max response [5]: 52.9% | AC50 [1]: 31.6 µM [falling, single point]

CCCCN1CCCC1C(=O)Nc1c(C)cc(C)cc1C (centres undefined)
AC50 [8, 19]: 1.26 µM [falling, full curve, poor fit] | AC50 [1]: 35.5 µM [falling, partial curve, poor fit]

Oc1c(Cl)cc(Cl)c(Cl)c1Cc1c(O)c(Cl)cc(Cl)c1Cl
AC50 [12]: 0.794 µM [falling, full curve] | AC50 [11]: 22.4 µM [rising, full curve, poor fit] | max response [6]: 54.7% and -55.9% | max response [7]: 29.4% and -49.9% | AC50 [8, 19]: 0.0316 µM [falling, full curve, poor fit] | AC50 [1]: 3.16 µM [falling, partial curve, poor fit]

NCCc1ccc(O)c(O)c1
AC50 [4, 17]: 67.5 µM [falling, partial curve] | AC50 [4, 18]: 75.7 µM [falling, partial curve] | AC50 [1]: 7.08 µM [rising, partial curve, poor fit]

Cc1cnc(NC(=O)C2=C(O)c3ccccc3S(=O)(=O)N2C)s1
AC50 [4, 18]: 60.1 µM [falling, partial curve, poor fit] | AC50 [9, 20]: 18.4 µM [falling, single point] | AC50 [9, 21]: 29.1 µM [falling, single point] | AC50 [1]: 31.6 µM [rising, single point]
